Entries after “also recorded” stand apart in the source; their conditions may differ. Part of at least one peptide drawing is inferred or uncertain, most often the ends. No end group written: not given here.
Columns and labels:
[1] = test system: cerebellar Purkinje cells or hippocampal pyramidal cells; assay: Iontophoretic application of synthetic polypeptides, firing rate (procedure analogous to French et al.); type: cell-based; settings: for firing rate of those cells: applied iontophoretically, preliminary studies
[2] = molecular target: T1, p1 B236 proteinoid (Rattus norvegicus, UniProt P07722); assay: Immunocytochemistry (indirect immunoperoxidase staining) of fixed rat brain sections, p1B236 antipeptide sera; type: binding; settings: antiserum at 1:1000 dilution; 60 micrograms per milliliter polypeptide overnight at 4 degrees C.
T1 construct: Extracts from rat brain cell tissue homogenates were analyzed by Western blot; from tissue; host or cells: rat brain: fixed sections (A7); crude mitochondrial-synaptosomal pellet of homogenate (A8)
T1 sequence (P07722 20-626): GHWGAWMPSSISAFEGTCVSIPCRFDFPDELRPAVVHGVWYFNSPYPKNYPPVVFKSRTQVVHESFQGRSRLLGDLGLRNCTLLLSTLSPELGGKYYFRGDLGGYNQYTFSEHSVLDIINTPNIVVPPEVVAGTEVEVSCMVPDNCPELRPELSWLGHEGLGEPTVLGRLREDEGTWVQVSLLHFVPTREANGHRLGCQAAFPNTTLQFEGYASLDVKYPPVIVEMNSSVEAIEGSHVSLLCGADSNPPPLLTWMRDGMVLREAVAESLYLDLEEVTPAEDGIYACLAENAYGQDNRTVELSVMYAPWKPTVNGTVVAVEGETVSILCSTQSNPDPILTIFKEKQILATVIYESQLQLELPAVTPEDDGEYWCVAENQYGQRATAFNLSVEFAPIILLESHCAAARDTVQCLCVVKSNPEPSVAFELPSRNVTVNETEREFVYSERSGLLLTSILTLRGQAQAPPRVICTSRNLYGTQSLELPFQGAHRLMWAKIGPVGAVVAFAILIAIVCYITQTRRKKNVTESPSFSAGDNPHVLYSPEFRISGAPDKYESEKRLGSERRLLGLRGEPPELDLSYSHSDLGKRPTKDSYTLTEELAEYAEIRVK

[3] = Intraventricular administration, locomotor activity; type: in vivo; settings: administered intraventricularly into rat brains, about 5 micrograms; preliminary studies
[4] = test system: corticol neurons; assay: Pressure application of synthetic polypeptide to neurons, single unit action potentials; type: cell-based; settings: 1 millimolar concentration applied by pressure to corticol neurons
[5] = test system: cells in the CA3 region of hippocampus; assay: Application of synthetic polypeptide to hippocampal CA3 cells, cell firing rate; type: cell-based

For LGSERRLLGLRGEPPELDLSYSHSDLG [P8], the glutamate-induced stimulation ([1]; 1 millimolar concentration in conjunction with glutamate (0.5 molar), iontophoretically) was “prolongation of glutamate-induced stimulation; also recorded: modulate neuroactivity in the presence of glutamate”, the electrophysiological effect ([1]; administered alone iontophoretically) was “no electrophysiological effect” and the “firing rate of those cells” value [1] was “modified”.
In the case of LLGLRGEPPELDLSYSHSDLG [P6], the “effect of preabsorption of the anti-P5 antiserum with synthetic polypeptide on immunoreactivity” value [2] was “no effect on the staining pattern or intensity”.
In the case of NVTESPSFSAGDNPHVLYSPEFRISGAPDKYESE [P5], the locomotor activity [3] was “significant increase in locomotor activity; also recorded: increase the daytime motor activity of rats”, the “effect of preabsorption of the anti-P5 antiserum with synthetic polypeptide on immunoreactivity” value [2] was “all immunoreactivity was abolished” and the “firing rate of those cells” value [1] was “modified”. For the same sequence, the “rate of spontaneous activity as measured by single unit action potentials” value [4] was “decrease in the rate of spontaneous activity”, the “firing rate of cells of the CA3 region of the hippocampus” value ([5]; administered iontophoretically (summary statement)) was “increase the firing rate” and the “rate of cell firing” value ([5]; similar application (1 millimolar, by pressure) to cells in the CA3 region of hippocampus) was “marked and prolonged increase in the rate of cell firing”.

From patent EP0135277B1, “Synthetic polypeptides corresponding to portions of proteinoids translated from brain-specific mRNAs, receptors, methods and diagnostics using the same” (SCRIPPS CLINIC AND RESEARCH FOUNDATION, priority 1983, dated 1985)
